PubChem BioAssay AID686938 | Drosophila RNAi Screening Center | 2013

- Assay: 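Looking for CRAC channel components and the factors controlling them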 (primary screen)
- Cell system: Drosophila S2R+ cells
- Reagents: long dsRNA against Drosophila genes, about 0.25 µg dsRNA per well, roughly 10,000 cells
- Time to read-out: 5 days of knock-down before the calcium assay
- Treatment: thapsigargin (SERCA pump blocker) to empty calcium stores; entry signal taken 4 min after adding it
- Detection: 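Per-well fluo-4 fluorescence in two replicates, unnormalised, measured in resting cells and 4 min after store depletion by the SERCA blocker thapsigargin; ratio of the two present in few wells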
- Scale: calcium entry signal: higher = stronger calcium signal after store depletion; entry to resting ratio: higher = more calcium entry relative to resting level; resting calcium signal: higher = higher resting calcium signal
- Active means: 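Called when the plate z-score of the entry-to-rest ratio, mean of duplicates, falls below −3; wells with low overall dye signal (Fmax z below −2) or more than five off-targets excluded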
- Calls: active = strongly reduced calcium entry; inactive = no strong reduction
In all, the deposit lists about 23,000 reagents; this is an unselected part of those with a known target gene and a result. In the full data, 75 (0.33%) are marked active. 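Raw plate signals without normalisation; calls rest on plate z-scores that were not deposited; ratio present for only 364 wells.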 A plus sign joins genes that one reagent is predicted to hit. Not given: the dose of the treatment.

gene | dsRNA | calcium entry signal, replicate 1 (fluorescence units) | calcium entry signal, replicate 2 (fluorescence units) | entry to resting ratio | resting calcium signal, replicate 1 (fluorescence units) | resting calcium signal, replicate 2 (fluorescence units) | Outcome
Ugalt (UDP-galactose transporter) | DRSC18467 | 4.84e7 | 2.72e7 | 2.4 | 2.03e7 | 1.28e7 | inactive
CG7182 | DRSC10780 | 3.29e7 | 1.82e7 | – | 2.34e7 | 8.69e6 | inactive
CG15673 | DRSC04263 | 5.40e7 | 5.20e7 | – | 2.70e7 | 2.21e7 | inactive
bves | DRSC20520 | 3.39e7 | 4.74e7 | – | 1.86e7 | 2.09e7 | inactive
bves | DRSC20554 | 3.61e7 | 4.48e7 | – | 1.90e7 | 2.03e7 | inactive
bves | DRSC20555 | 3.49e7 | 3.99e7 | – | 2.01e7 | 1.91e7 | inactive
RpL39 (Ribosomal protein L39) | DRSC04651 | 1.50e7 | 1.42e7 | – | 1.04e7 | 9.60e6 | inactive
mRpL17 (mitochondrial ribosomal protein L17) | DRSC08350 | 4.76e7 | 5.03e7 | – | 2.23e7 | 2.12e7 | inactive
bdl (borderless) | DRSC00271 | 4.83e7 | – | – | 2.52e7 | – | inactive

Sorted by “calcium entry signal, replicate 2 (fluorescence units)” (ascending): some entries from above.
gene | dsRNA | calcium entry signal, replicate 1 (fluorescence units) | calcium entry signal, replicate 2 (fluorescence units) | entry to resting ratio | resting calcium signal, replicate 1 (fluorescence units) | resting calcium signal, replicate 2 (fluorescence units) | Outcome
RpL39 (Ribosomal protein L39) | DRSC04651 | 1.50e7 | 1.42e7 | – | 1.04e7 | 9.60e6 | inactive
mRpL17 (mitochondrial ribosomal protein L17) | DRSC08350 | 4.76e7 | 5.03e7 | – | 2.23e7 | 2.12e7 | inactive

The list goes on:
gene | dsRNA | calcium entry signal, replicate 1 (fluorescence units) | calcium entry signal, replicate 2 (fluorescence units) | entry to resting ratio | resting calcium signal, replicate 1 (fluorescence units) | resting calcium signal, replicate 2 (fluorescence units) | Outcome
Elp3 (Elongator complex protein 3) | DRSC00448 | 2.62e7 | 2.20e7 | – | 1.33e7 | 1.12e7 | inactive
CG34025 | DRSC08014 | 4.80e7 | 3.76e7 | – | 2.69e7 | 1.82e7 | inactive
CG30031 + deltaTry + gammaTry | DRSC07622 | 3.74e7 | 3.26e7 | – | 1.73e7 | 1.56e7 | inactive
Sarm (Sterile alpha and Armadillo motif) | DRSC08906 | 1.99e7 | 3.92e7 | – | 1.25e7 | 1.73e7 | inactive
Sarm (Sterile alpha and Armadillo motif) | DRSC08907 | 2.51e7 | 4.07e7 | – | 1.52e7 | 1.72e7 | inactive
Sarm (Sterile alpha and Armadillo motif) | DRSC10038 | 3.35e7 | 4.54e7 | – | 1.56e7 | 1.91e7 | inactive
Sarm (Sterile alpha and Armadillo motif) | DRSC10039 | 3.53e7 | 4.03e7 | – | 1.79e7 | 1.89e7 | inactive
Sarm (Sterile alpha and Armadillo motif) | DRSC10927 | 3.21e7 | 3.95e7 | – | 1.57e7 | 1.65e7 | inactive
Sarm (Sterile alpha and Armadillo motif) | DRSC10929 | 5.06e7 | 4.74e7 | – | 3.46e7 | 1.91e7 | inactive
CG32687 | DRSC18210 | 2.79e7 | 3.06e7 | – | 1.36e7 | 1.51e7 | inactive
CG32687 | DRSC18237 | 2.93e7 | 4.13e7 | – | 1.46e7 | 1.83e7 | inactive
sun (stunted) | DRSC20140 | 4.31e7 | 3.35e7 | – | 2.11e7 | 1.54e7 | inactive
Hacd1 (3-hydroxyacyl-CoA dehydratase 1) | DRSC02988 | 5.56e7 | – | – | 2.69e7 | – | inactive
CG10804 | DRSC17764 | 4.97e7 | 5.05e7 | – | 2.17e7 | 2.25e7 | inactive
Ubc2 (Ubiquitin conjugating enzyme 2) | DRSC01137 | 4.79e7 | 5.59e7 | – | 2.29e7 | 2.44e7 | inactive
Ubc2 (Ubiquitin conjugating enzyme 2) | DRSC03468 | 3.26e7 | 4.92e7 | – | 1.59e7 | 2.05e7 | inactive
